Measurements: PubChem BioAssay AID264 (DTP/NCI, 2004)
The list shows only some results of the screen, not a fair sample: it gathers tests that were run many times, whatever their T/C, doses with no T/C, and many T/C values between a quarter and a half above the control. Other doses and runs of a compound stand elsewhere. T/C: endpoint of the treated group in % of that of the vehicle group. Schedules are NCI's codes, read here as Q, the interval in days (D) or hours (H), X, the number of doses. Some values lie below zero, which means that the treated tumours became smaller. Some doses were run more than once; the values are given in rising order. Some T/C values carry the count of animals alive at the toxicity check (mostly the fifth day); where none is given, no animal had died by that day. Some entries give survivors of the animals treated and no T/C: the source files T/C as zero there, which appears to mark a toxic dose or a test without result, not a measured value. Counts of survivors are from the toxicity check (mostly the fifth day) where no day follows; animals may have died later.

Tested on: nude mice, LX-1 lung xenograft intrarenal, tumor weight T/C
Experiment: NCI In Vivo Anticancer Drug Screen. Data for tumor model Human Lung LX-1 Xenograft (intrarenal inoculation) in NU/NU Swiss (nude) mice
Details: T/C endpoint: mean tumor weight change, higher T/C = larger tumour; for T/C: evaluated on day 11
How it was run: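 Activity was scored by measuring tumors in treated animals and in vehicle controls, then reporting the treated result as a fraction of the control result.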

[1] = dose: 400.0 mg/kg/injection, schedule: Q04DX003 (sc), vehicle: Klucel (hydroxypropylcellulose) (HPC)
[2] = dose: 300.0 mg/kg/injection, schedule: Q04DX003 (sc), vehicle: saline with Tween-80
[3] = dose: 600.0 mg/kg/injection, schedule: Q04DX003 (sc), vehicle: saline with Tween-80
[4] = dose: 1200.0 mg/kg/injection, schedule: Q04DX003 (sc), vehicle: saline with Tween-80
[5] = dose: 300.0 mg/kg/injection, schedule: Q04DX003 (sc), vehicle: saline
[6] = dose: 6.0 mg/kg/injection, schedule: Q04DX003 (sc), vehicle: water
[7] = dose: 12.0 mg/kg/injection, schedule: Q04DX003 (sc), vehicle: water
[8] = dose: 200.0 mg/kg/injection, schedule: Q04DX003 (sc), vehicle: suspension in saline
[9] = dose: 400.0 mg/kg/injection, schedule: Q04DX003 (sc), vehicle: suspension in saline

SMILES: Nc1ccc2nc3ccc(N)cc3[n+](-c3ccccc3)c2c1
- survivor count (dose: 144.0 mg/kg/injection, schedule: Q04DX003 (sc), vehicle: saline): 1 of 6 on day 11
- survivor count (dose: 288.0 mg/kg/injection, schedule: Q04DX003 (sc), vehicle: saline): 0 of 6 on day 11

SMILES: CSc1cc(C)[o+]c(C)c1
- T/C (dose: 50.0 mg/kg/injection, schedule: Q04DX003 (sc), vehicle: Klucel (hydroxypropylcellulose) (HPC)): 128 % of control
- survivor count [1]: 0 of 6 on day 11

SMILES: CCN(CC)CCC(=O)c1ccccc1
- T/C [2]: 133 % of control [5 of 6 alive on day 11]
- survivor count [3]: 2 of 6 on day 11
- survivor count [4]: 0 of 6 on day 11

SMILES: O=P1(NCCCl)OCCCN1CCCl (stereo unspecified)
- survivor count [5]: 3 of 6 on day 11
- survivor count (dose: 600.0 mg/kg/injection, schedule: Q04DX003 (sc), vehicle: saline): 0 of 6 on day 11

SMILES: Clc1cc(Cl)c(C[N+]23CN4CN(CN(C4)C2)C3)cc1Cl
- survivor count [2]: 3 of 6 on day 11
- survivor count [3]: 0 of 6 on day 11
- survivor count [4]: 0 of 6 on day 11
- survivor count (dose: 2400.0 mg/kg/injection, schedule: Q04DX003 (sc), vehicle: saline with Tween-80): 0 of 6 on day 11

SMILES: CC(C)(C)N1CC1CNC(=O)C(=O)NCC1CN1C(C)(C)C (stereo unspecified)
- survivor count (dose: 50.0 mg/kg/injection, schedule: Q04DX003 (sc), vehicle: saline with Tween-80): 0 of 6 on day 11

SMILES: CCC1(O)CC2CN(CCc3c([nH]c4ccccc34)C(C(=O)OC)(c3cc4c(cc3OC)N(C)C3C(O)(C(N)=O)C(O)C5(CC)C=CCN6CCC43C65)C2)C1 (stereo unspecified) (tested in a mixture with another compound)
- T/C (dose: 3.0 mg/kg/injection, schedule: Q04DX003 (sc), vehicle: water): 8 [5 of 6 alive on day 11], 9, 15, 40 % of control
- T/C [6]: 4 and 16 % of control
- survivor count [6]: 3 of 6 on day 11
- T/C [7]: -33 and 5 % of control
- survivor count [7]: 0 of 6 on day 11
- survivor count (dose: 24.0 mg/kg/injection, schedule: Q04DX003 (sc), vehicle: water): 0 of 6 on day 11

SMILES: COC(=O)C12OCC34C(CC5C(C)=CC(=O)C(O)C5(C)C3C(O)C1O)OC(=O)C(OC(=O)CC(C)C)C24 (stereo unspecified)
- survivor count (dose: 6.0 mg/kg/injection, schedule: Q04DX003 (sc), vehicle: saline + alcohol): 3 of 6 on day 11
- survivor count (dose: 12.0 mg/kg/injection, schedule: Q04DX003 (sc), vehicle: saline + alcohol): 0 of 6 on day 11
- survivor count (dose: 24.0 mg/kg/injection, schedule: Q04DX003 (sc), vehicle: saline + alcohol): 0 of 6 on day 11

SMILES: C[C@]12CCC(=O)C=C1CC[C@@H]1[C@@H]2C(=O)C[C@@]2(C)[C@H]1CC[C@]2(O)C(=O)CO
- survivor count (dose: 2400.0 mg/kg/injection, schedule: Q04DX003 (sc), vehicle: Klucel (hydroxypropylcellulose) (HPC)): 2 of 6 on day 11

SMILES: C(CSC1=NCCN1)CSC1=NCCN1
- survivor count (dose: 200.0 mg/kg/injection, schedule: Q01DX010 (sc), vehicle: saline): 0 of 3 on day 11
- survivor count (dose: 400.0 mg/kg/injection, schedule: Q01DX010 (sc), vehicle: saline): 0 of 3 on day 11

SMILES: ClCCCN1CCN(CCCCl)CC1
- survivor count (dose: 300.0 mg/kg/injection, schedule: Q04DX003 (sc), vehicle: distilled water + alcohol): 0 of 6 on day 11
- survivor count (dose: 600.0 mg/kg/injection, schedule: Q04DX003 (sc), vehicle: distilled water + alcohol): 0 of 6 on day 11

SMILES: O=c1[nH]c(=O)n([C@H]2CCCO2)cc1F
- T/C (dose: 100.0 mg/kg/injection, schedule: Q01DX010 (sc), vehicle: Klucel (hydroxypropylcellulose) (HPC)): 132 % of control

SMILES: Ic1ncnc2c1ncn2C1CCCO1 (stereo unspecified)
- T/C [1]: 135 % of control

SMILES: CCc1ncnc2cc(OCC3CO3)c(OC)cc12 (stereo unspecified)
- survivor count [8]: 2 of 6 on day 11
- survivor count [9]: 0 of 6 on day 11

SMILES: O=NN(CCCl)C(=O)NC1CCC(=O)NC1=O (stereo unspecified)
- survivor count (dose: 6.25 mg/kg/injection, schedule: Q01DX010 (sc), vehicle: saline with Tween-80): 1 of 2 on day 11
- survivor count (dose: 12.5 mg/kg/injection, schedule: Q01DX010 (ip), vehicle: saline with Tween-80): 0 of 3 on day 11
- survivor count (dose: 12.5 mg/kg/injection, schedule: Q01DX010 (sc), vehicle: saline with Tween-80): 0 of 2 on day 11 and 0 of 3 on day 11
- survivor count (dose: 20.8 mg/kg/injection, schedule: Q04DX003 (ip), vehicle: saline with Tween-80): 0 of 3 on day 11
- survivor count (dose: 25.0 mg/kg/injection, schedule: Q01DX010 (sc), vehicle: saline with Tween-80): 0 of 3 on day 11
- survivor count (dose: 41.6 mg/kg/injection, schedule: Q04DX003 (ip), vehicle: saline with Tween-80): 0 of 3 on day 11
- survivor count (dose: 50.0 mg/kg/injection, schedule: Q01DX010 (sc), vehicle: saline with Tween-80): 0 of 3 on day 11

SMILES: CCCCCC1c2cc(O)ccc2OC1N1CCOCC1 (stereo unspecified)
- T/C [2]: 128 % of control

SMILES: O=S(=O)(SC(S(=O)(=O)c1ccccc1)S(=O)(=O)c1ccccc1)c1ccccc1
- T/C (dose: 200.0 mg/kg/injection, schedule: Q04DX003 (sc), vehicle: Klucel (hydroxypropylcellulose) (HPC)): 125 % of control
- T/C (dose: 800.0 mg/kg/injection, schedule: Q04DX003 (sc), vehicle: Klucel (hydroxypropylcellulose) (HPC)): 129 % of control
- survivor count (dose: 1600.0 mg/kg/injection, schedule: Q04DX003 (sc), vehicle: Klucel (hydroxypropylcellulose) (HPC)): 3 of 6 on day 11

SMILES: c1ccc2c(NCCCCCCNc3c4ccccc4nc4ccccc34)c3ccccc3nc2c1
- T/C (dose: 20.0 mg/kg/injection, schedule: Q01DX010 (sc), vehicle: Klucel (hydroxypropylcellulose) (HPC)): 128 % of control [2 of 2 alive on day 11]
- survivor count (dose: 40.0 mg/kg/injection, schedule: Q01DX010 (sc), vehicle: Klucel (hydroxypropylcellulose) (HPC)): 0 of 3 on day 11 and 1 of 2 on day 11
- survivor count (dose: 80.0 mg/kg/injection, schedule: Q01DX010 (sc), vehicle: Klucel (hydroxypropylcellulose) (HPC)): 0 of 3 on day 11

SMILES: NCCc1cc(O)c(O)c(O)c1
- T/C (dose: 400.0 mg/kg/injection, schedule: Q04DX003 (sc), vehicle: saline): 145 % of control

SMILES: C[C@@]12C(=O)OC(=O)[C@]1(C)[C@H]1CC[C@@H]2O1
- T/C (dose: 5.0 mg/kg/injection, schedule: Q04DX003 (sc), vehicle: Klucel (hydroxypropylcellulose) (HPC)): 127 % of control [5 of 6 alive on day 11]
- survivor count (dose: 10.0 mg/kg/injection, schedule: Q04DX003 (sc), vehicle: Klucel (hydroxypropylcellulose) (HPC)): 2 of 6 on day 11

SMILES: Cc1c2cc[n+](CCN3CCCCC3)cc2c(C)c2c1[nH]c1ccc(O)cc12
- survivor count [8]: 0 of 6 on day 11
- survivor count [9]: 0 of 6 on day 11

SMILES: [N-]=[N+]=CC(=O)CCC(=O)C=[N+]=[N-]
- survivor count (dose: 6.0 mg/kg/injection, schedule: Q01DX010 (sc), vehicle: DMSO): 1 of 3 on day 11
- survivor count (dose: 12.0 mg/kg/injection, schedule: Q01DX010 (sc), vehicle: DMSO): 0 of 3 on day 11

SMILES: O=C(O)C(O)C(O)C1[O][Sb][O]C1C(=O)O (stereo unspecified)
- T/C (dose: 150.0 mg/kg/injection, schedule: Q04DX003 (sc), vehicle: saline): 128 % of control
- survivor count [5]: 1 of 6 on day 11

SMILES: O=Cc1ccc(C(Cl)(Cl)Cl)cc1
- T/C (dose: 200.0 mg/kg/injection, schedule: Q01DX010 (sc), vehicle: saline with Tween-80): 128 % of control
